Here are results for one substance from patent US20090156471A1, “Use of anti-amyloid agents for treating and typing pathogen infections” (RAMOT AT TEL AVIV UNIVERSITY LTD., priority 2005, published 2009).

Protein sequences, listed by entry. Tags and fused reporters are not part of them. Residues count along the entry.
UniProt P07589, residues 33-2478: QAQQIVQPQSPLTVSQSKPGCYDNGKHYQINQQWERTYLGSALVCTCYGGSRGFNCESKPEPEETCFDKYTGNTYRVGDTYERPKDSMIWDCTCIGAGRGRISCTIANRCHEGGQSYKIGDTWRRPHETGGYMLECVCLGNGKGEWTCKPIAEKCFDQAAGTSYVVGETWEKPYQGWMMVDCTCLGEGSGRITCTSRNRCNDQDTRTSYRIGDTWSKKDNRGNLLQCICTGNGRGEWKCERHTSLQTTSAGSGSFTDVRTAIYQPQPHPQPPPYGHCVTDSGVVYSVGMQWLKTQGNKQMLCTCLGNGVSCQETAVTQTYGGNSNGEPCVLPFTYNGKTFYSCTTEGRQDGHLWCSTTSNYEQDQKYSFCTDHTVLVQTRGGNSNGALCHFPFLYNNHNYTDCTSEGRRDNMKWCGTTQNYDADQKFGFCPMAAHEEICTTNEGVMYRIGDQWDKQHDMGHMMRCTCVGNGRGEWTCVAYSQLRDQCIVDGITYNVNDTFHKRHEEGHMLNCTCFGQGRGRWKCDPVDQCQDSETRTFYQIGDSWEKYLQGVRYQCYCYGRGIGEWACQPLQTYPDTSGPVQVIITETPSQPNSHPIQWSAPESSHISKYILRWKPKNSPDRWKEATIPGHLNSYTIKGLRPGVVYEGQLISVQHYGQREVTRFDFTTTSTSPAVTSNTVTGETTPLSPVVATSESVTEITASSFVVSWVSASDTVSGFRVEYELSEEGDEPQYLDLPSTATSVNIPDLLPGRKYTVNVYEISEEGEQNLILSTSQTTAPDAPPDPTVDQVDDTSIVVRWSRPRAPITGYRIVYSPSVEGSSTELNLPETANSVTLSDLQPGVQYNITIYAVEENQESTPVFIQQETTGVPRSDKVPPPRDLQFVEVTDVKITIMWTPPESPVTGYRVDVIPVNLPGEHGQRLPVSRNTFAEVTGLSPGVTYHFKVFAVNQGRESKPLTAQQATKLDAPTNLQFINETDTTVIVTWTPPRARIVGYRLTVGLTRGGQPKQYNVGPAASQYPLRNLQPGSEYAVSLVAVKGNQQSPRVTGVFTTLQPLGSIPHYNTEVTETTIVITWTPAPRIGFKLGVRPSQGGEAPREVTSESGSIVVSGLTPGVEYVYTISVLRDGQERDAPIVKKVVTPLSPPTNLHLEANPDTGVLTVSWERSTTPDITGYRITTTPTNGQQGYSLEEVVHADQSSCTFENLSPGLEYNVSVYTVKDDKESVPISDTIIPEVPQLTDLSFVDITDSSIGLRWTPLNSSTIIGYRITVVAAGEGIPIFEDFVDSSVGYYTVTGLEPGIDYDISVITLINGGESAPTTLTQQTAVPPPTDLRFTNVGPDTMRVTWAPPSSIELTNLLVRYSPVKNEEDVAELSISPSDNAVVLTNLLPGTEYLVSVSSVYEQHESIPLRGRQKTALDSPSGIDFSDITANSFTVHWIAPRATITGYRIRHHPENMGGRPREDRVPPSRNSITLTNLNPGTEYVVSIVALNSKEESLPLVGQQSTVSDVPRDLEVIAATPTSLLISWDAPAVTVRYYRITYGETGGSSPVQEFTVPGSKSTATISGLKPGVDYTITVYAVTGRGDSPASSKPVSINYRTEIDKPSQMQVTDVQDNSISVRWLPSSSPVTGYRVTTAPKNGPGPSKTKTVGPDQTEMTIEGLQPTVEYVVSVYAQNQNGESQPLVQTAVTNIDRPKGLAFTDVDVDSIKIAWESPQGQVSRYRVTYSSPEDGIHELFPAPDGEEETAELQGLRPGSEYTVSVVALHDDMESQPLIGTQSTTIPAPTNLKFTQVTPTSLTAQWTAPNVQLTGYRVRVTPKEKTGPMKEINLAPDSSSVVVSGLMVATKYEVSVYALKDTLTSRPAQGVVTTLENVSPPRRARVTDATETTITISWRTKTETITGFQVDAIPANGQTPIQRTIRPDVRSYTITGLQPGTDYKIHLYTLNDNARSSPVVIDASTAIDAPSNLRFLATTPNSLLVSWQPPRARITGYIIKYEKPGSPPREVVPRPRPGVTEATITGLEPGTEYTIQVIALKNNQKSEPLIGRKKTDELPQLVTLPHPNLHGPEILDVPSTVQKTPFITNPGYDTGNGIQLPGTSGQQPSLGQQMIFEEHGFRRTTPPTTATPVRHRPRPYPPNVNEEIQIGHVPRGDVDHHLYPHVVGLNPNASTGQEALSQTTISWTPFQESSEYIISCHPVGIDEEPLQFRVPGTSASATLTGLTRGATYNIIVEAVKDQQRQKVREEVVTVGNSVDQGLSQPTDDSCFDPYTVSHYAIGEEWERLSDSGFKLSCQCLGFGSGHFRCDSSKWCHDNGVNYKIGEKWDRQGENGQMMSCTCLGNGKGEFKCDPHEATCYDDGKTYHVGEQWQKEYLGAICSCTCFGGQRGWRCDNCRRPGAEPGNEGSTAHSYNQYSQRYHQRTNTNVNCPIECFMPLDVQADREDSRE
UniProt P28307, residues 21-151: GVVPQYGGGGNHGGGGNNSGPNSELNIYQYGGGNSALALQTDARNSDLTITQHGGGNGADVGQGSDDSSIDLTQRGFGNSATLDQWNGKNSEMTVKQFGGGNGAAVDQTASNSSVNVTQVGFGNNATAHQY

The target of this assay is bovine fibronectin (Sigma) (bovine) (UniProt P07589). Kind of assay: adhesion of curli-expressing E. coli XL1-Blue(pMRInv) to wells coated with bovine fibronectin, A405.

These are yes or no findings as the source states them, for the method shown. Some results given as binding are weak or reduced against the parent protein; the word gives no strength.

Turning to “curli (major curlin subunit CsgA) on E. coli K-12 XL1-Blue(pMRInv) (from UniProt P28307 21-151)”, the binding entry was “binds”.
